{"source": "PubChem BioAssay AID1259314 (Drosophila RNAi Screening Center, 2017)", "screen": "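Genes whose knock-down alters cell survival under toxic manganese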 (primary screen)", "cell system": "Drosophila S2R+ cells", "reagents": "long dsRNA against Drosophila genes", "time to read-out": "5 days (4 days knock-down, then 1 day metal exposure)", "conditions": "manganese chloride added to 15 mM for 24 hours", "detection": "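Luciferase ATP signal used as a proxy for viable cell number, reported as one averaged z-score per dsRNA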", "scale": "mean ATP z-score: higher = more ATP than the plate average, more viable cells under manganese", "rule for the call": "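Called active when the mean ATP z-score is above 1.5 or below -1.5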", "meaning of the calls": "active = strong ATP change, up or down; inactive = no strong ATP change", "note": "In all, the deposit lists about 3,100 reagents; below is an unselected part. Of all reagents, 289 (9.3%) were called active. 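Active includes both higher and lower ATP than plate average; check the z-score sign for direction.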 Names joined by + are all predicted targets of the reagent. The record does not give: the amount of reagent."}
{"gene":"Osi18","PubChem SID":"SID104191973","mean ATP z-score":-0.622,"call":"inactive"}
{"gene":"ppk5","PubChem SID":"SID104191284","mean ATP z-score":0.388,"call":"inactive"}
{"gene":"ppk5","PubChem SID":"SID104217123","mean ATP z-score":-0.123,"call":"inactive"}
{"gene":"hoe2","PubChem SID":"SID104180251","mean ATP z-score":-0.155,"call":"inactive"}
{"gene":"hoe2","PubChem SID":"SID104217046","mean ATP z-score":-0.204,"call":"inactive"}
{"gene":"Ir11a","PubChem SID":"SID104199491","mean ATP z-score":-0.139,"call":"inactive"}
{"gene":"Ir11a","PubChem SID":"SID104217055","mean ATP z-score":-0.516,"call":"inactive"}
{"gene":"CG13078","PubChem SID":"SID104181974","mean ATP z-score":0.242,"call":"inactive"}
{"gene":"ppk26","PubChem SID":"SID104190783","mean ATP z-score":-0.712,"call":"inactive"}
{"gene":"ppk26","PubChem SID":"SID104204420","mean ATP z-score":-0.494,"call":"inactive"}
{"gene":"CG40006","PubChem SID":"SID104183579","mean ATP z-score":-0.0441,"call":"inactive"}
{"gene":"CG40006","PubChem SID":"SID104183606","mean ATP z-score":0.205,"call":"inactive"}
{"gene":"CG17928","PubChem SID":"SID104182436","mean ATP z-score":0.113,"call":"inactive"}
{"gene":"CG17928","PubChem SID":"SID104217129","mean ATP z-score":1.67,"call":"active"}
{"gene":"tadr","PubChem SID":"SID104182969","mean ATP z-score":-0.801,"call":"inactive"}
{"gene":"tadr","PubChem SID":"SID104217165","mean ATP z-score":-0.369,"call":"inactive"}
{"gene":"Pis","PubChem SID":"SID104199970","mean ATP z-score":-0.704,"call":"inactive"}
{"gene":"Pis","PubChem SID":"SID104208520","mean ATP z-score":0.926,"call":"inactive"}
{"gene":"SiaT","PubChem SID":"SID104184286","mean ATP z-score":-0.394,"call":"inactive"}
{"gene":"SiaT","PubChem SID":"SID104217240","mean ATP z-score":-0.699,"call":"inactive"}
{"gene":"Grik","PubChem SID":"SID104195638","mean ATP z-score":-0.666,"call":"inactive"}
{"gene":"Grik","PubChem SID":"SID104195639","mean ATP z-score":0.781,"call":"inactive"}
{"gene":"Grik","PubChem SID":"SID104204611","mean ATP z-score":1.42,"call":"inactive"}
{"gene":"Lcch3 + Ranbp16","PubChem SID":"SID104217435","mean ATP z-score":-0.941,"call":"inactive"}
{"gene":"CG11537","PubChem SID":"SID104187992","mean ATP z-score":-1.14,"call":"inactive"}
{"gene":"CG11537","PubChem SID":"SID104217154","mean ATP z-score":-0.631,"call":"inactive"}
{"gene":"CG17929","PubChem SID":"SID104195083","mean ATP z-score":-0.0437,"call":"inactive"}
{"gene":"CG17929","PubChem SID":"SID104217248","mean ATP z-score":0.278,"call":"inactive"}
{"gene":"CG11262","PubChem SID":"SID104189623","mean ATP z-score":-0.519,"call":"inactive"}
{"gene":"CG11262","PubChem SID":"SID104217040","mean ATP z-score":-0.375,"call":"inactive"}
{"gene":"COX4L","PubChem SID":"SID104184633","mean ATP z-score":-0.701,"call":"inactive"}
{"gene":"COX4L","PubChem SID":"SID104217245","mean ATP z-score":-0.319,"call":"inactive"}
